In PMC4201086:
No constants are given. Whether binding was seen depends on the method and setting. Binding seen in cells or lysates may run through a third protein. Some entries that bind do so weakly or less than the wild type.

Target: Dual specificity tyrosine-phosphorylation-regulated kinase 1A (DYRK1A), endogenous, mouse brain (mouse (endogenous in adult mouse brain)) (UniProt Q61214)
Test: co-IP; anti-DYRK1A mAb, protein G-Sepharose; membrane-associated fraction of adult mouse brain solubilized in 10 mM HEPES pH 7.4, 150 mM NaCl, 1 mM EDTA, 0.1 mM MgCl2, 1% NP-40; overnight 4°C; Western blot with anti-GluN2A; mouse IgG as control

- binding: binds
Substance: NMDA receptor subunit GluN2A, endogenous, mouse brain (from UniProt P35436 23-1464)
